Measurements reported in article doi:10.1101/2024.06.25.600532.
Results are given in words; binding and its absence hold for the method and conditions named. In cells and extracts the contact can be indirect. Some binding calls cover weakened binding; strength is not graded here. For some assays here: Sequences can lack the tags named with a protein.

B1: Fibrillarin (FBL) (protein, UniProt P22087 1-321)
chain: MKPGFSPRGGGFGGRGGFGDRGGRGGRGGFGGGRGRGGGFRGRGRGGGGGGGGGGGGGRGGGGFHSGGNRGRGRGGKRGNQSGKNVMVEPHRHEGVFICRGKEDALVTKNLVPGESVYGEKRVSISEGDDKIEYRAWNPFRSKLAAAILGGVDQIHIKPGAKVLYLGAASGTTVSHVSDIVGPDGLVYAVEFSHRSGRDLINLAKKRTNIIPVIEDARHPHKYRMLIAMVDVIFADVAQPDQTRIVALNAHTFLRNGGHFVISIKANCIDSTASAEAVFASEVKKMQQENMKPQEQLTLEPYERDHAVVVGVYRPPPKVKN
B2: FBL (GST pull-down) (protein, UniProt P22087 1-321)
chain: B1 chain

Experiments:
[1] = target: LYAR (Co-IP in K562 and HUDEP-2 cells) (UniProt Q9NX58); assay: co-IP
[2] = target: LYAR (GST pull-down) (UniProt Q9NX58); assay: pull-down

| Binder | binding [1] | binding [2] |
| --- | --- | --- |
| B1 | binds |  |
| B2 |  | binds |
